The assay can be described thus: qHTS Assay for Lipid Storage Modulators in Drosophila S3 Cells.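 On cell number change: cells counted by Cell Tracker Red CMTPX staining in the red channel.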 As to conditions: BODIPY lipid droplet fluorescence, 18-24 h; for cell number change: measured here: cell count max response, cells fed with added oleic acid. A digest of the protocol: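 Drosophila S3 cells loaded with oleic acid (400 uM, as added) and compounds at several concentrations; lipid droplets imaged by 488-nm laser-scanning cytometry, 500–530 nm intensity and object ratio to cell channel. Percent activity normalized to 20 uM Triacsin C.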

The mark [1] stands for this setting: measured here: cell number channel AC50, cells fed with added oleic acid.
[2] abbreviates: measured here: lipid fluorescence (Fed channel) AC50, cells fed with added oleic acid.

Some of the results follow. The main result of the screen is listed elsewhere. These columns were measured beside it and carry no call. Most of these compounds were active or inconclusive in the main read-out, so they are no random draw. The note in brackets gives the kind of curve behind each potency; many fits are weak.

In the case of `CCOC(=O)C(CSCC(=O)c1ccc(Br)cc1)NC(=O)OC(C)(C)C` (stereo unspecified), the cell number change is -0.264%. Besides, the AC50 under setting [1] is 6.51 µM [falling, single point]. Besides, the concentration at half-maximal activity (AC50) under setting [2] is 4.61 µM [falling, single point].
As to `COc1ccc(N2CC(C)(C)C2=O)cc1`, the cell number change was 10.2%.
As to `CCc1cc(-c2n[nH]c(=S)n2C(C)c2ccccc2)cs1` (stereo unspecified), the cell number change was found to be 14.4%. Further, under setting [2], the concentration at half-maximal activity (AC50) was 6.51 µM [falling, single point].
As for `Cn1c(SCC(=O)NNC(=O)c2ccccc2O)nnc1-c1ccccc1`, the cell number change stood at 58.3%. Also, the half-maximal activity concentration (AC50) under setting [1] was 18.4 µM [rising, single point]. In addition, the AC50 under setting [2] was 6.51 µM [rising, single point].
Regarding `COc1ccc(C(=O)C(CN2CCCC2)c2ccccc2)cc1` (stereo unspecified), the cell number change is -39.3%. The AC50 under setting [1] is 25.9 µM [falling, single point]. For the same compound, the AC50 under setting [2] was 18.4 µM [falling, single point].
For the compound `COCCN(Cc1ccccc1)C(=O)c1cccc(S(=O)(=O)N(C)c2c(C)n(C)n(-c3ccccc3)c2=O)c1`, the concentration at half-maximal activity (AC50) by setting is: under setting [1], 0.0206 µM [falling, full curve, poor fit]; under setting [2], 0.103 µM [rising, full curve, poor fit].
As for `COc1ccc(CNC(=O)c2ccc(CN3CCOCC3)cc2)cc1`, the cell number change was found to be 3.53%. Further, the half-maximal activity concentration (AC50) under setting [1] is 0.13 µM [falling, full curve, poor fit]. Besides, the concentration at half-maximal activity (AC50) under setting [2] was 6.51 µM [falling, single point].
`COC(=O)c1sccc1NC(=O)Nc1cc(C)cc(C)c1`: the cell number change was determined as 39%. In addition, under setting [1], the AC50 is 4.61 µM [rising, partial curve, poor fit]. The concentration at half-maximal activity (AC50) under setting [2] is 29.1 µM [falling, single point].
For the compound `COc1ccc(N2CCN(C(=O)Cn3cnc4c3c(=O)n(C)c(=O)n4C)CC2)cc1`, the cell number change is -18.5%. In addition, the half-maximal activity concentration (AC50) under setting [1] was 0.146 µM [falling, full curve, poor fit]. The AC50 under setting [2] is 25.9 µM [falling, single point].
In the case of `O=C(Cn1c(=O)n(CCC(=O)N2CCCCC2)c(=O)c2sccc21)NCc1ccccc1`, the cell number change stood at 22%. The AC50 under setting [2] was 0.103 µM [falling, full curve, poor fit].
Turning to `O=C(c1cc(-c2ccccc2)nc2ccccc12)N1CCN(c2ccccc2O)CC1`, the cell number change is -18.3%. Under setting [2], the AC50 was 32.6 µM [falling, single point].
Turning to `COc1ccc(CNCc2cc3c(C(C)(C)C)nn(-c4ccccc4)c3[nH]c2=O)cc1`, the cell number change is -60.9%. The half-maximal activity concentration (AC50) under setting [1] was 29.1 µM [falling, single point].
Turning to `COC(=O)c1sccc1NC(=S)N1CCN(c2ccccc2F)CC1`, the cell number change is -15.6%. In addition, the concentration at half-maximal activity (AC50) under setting [1] was 0.164 µM [falling, full curve, poor fit]. The concentration at half-maximal activity (AC50) under setting [2] was 2.59 µM [falling, partial curve].
In the case of `NS(=O)(=O)c1cccc(NC(=O)CN2CCN(Cc3ccc4c(c3)OCO4)CC2)c1`, under setting [2], the AC50 was 13 µM [rising, partial curve, poor fit].
Regarding `O=C(Nc1nnc(CCS(=O)(=O)c2ccc3ccccc3c2)s1)c1ccc([N+](=O)[O-])cc1`, the cell number change is 3.3%. In addition, under setting [2], the AC50 is 23.1 µM [falling, single point].
Turning to `CCN(C(=O)COC(=O)COc1ccc2c(c1)CCC2)c1c(N)n(Cc2ccccc2)c(=O)[nH]c1=O`, the cell number change stood at 71.1%. Also, the concentration at half-maximal activity (AC50) under setting [1] was 29.1 µM [rising, single point].
In the case of `CC1(C)CC(=O)C(Sc2ccccc2C(=O)O)=C(O)C1`, under setting [2], the half-maximal activity concentration (AC50) was 0.731 µM [falling, single point].
Turning to `O=C(NCCO)c1cccc(S(=O)(=O)N2CCCCC2)c1`, the cell number change was 2.69%. Moreover, the half-maximal activity concentration (AC50) under setting [2] is 6.51 µM [falling, partial curve, poor fit].
On to `O=C1COc2ccc(C(=O)COC(=O)Cc3ccsc3)cc2N1`, for which the cell number change was -85%. Also, under setting [1], the AC50 is 18.4 µM [falling, single point].
As to `CCc1cc(C(=O)N2CCN(C(=O)c3ccco3)CC2)sc1C`, the cell number change was -24.5%. The AC50 under setting [2] was 5.8 µM [falling, partial curve, poor fit].
Turning to `Cc1ccc(C(=O)N/C(=C/c2ccccc2)C(=O)NC(Cc2ccccc2)C(=O)O)cc1` (stereo unspecified), the cell number change is -9.23%. Further, the AC50 under setting [2] was 11.6 µM [falling, partial curve].
`COCCN(C(=O)COC(=O)c1ccc2c(c1)OCCO2)c1c(N)n(Cc2ccccc2)c(=O)[nH]c1=O`: the cell number change is -19.3%.
Turning to `CCN1C(=O)[C@H]2[C@@H](c3ccc(-c4ccc(C(C)=O)cc4)cc3)N3CCCC[C@@]3(C(=O)OC)[C@H]2C1=O`, the concentration at half-maximal activity (AC50) under setting [2] was 6.51 µM [falling, single point].
Turning to `COc1ccc(C2C3=C(CCCC3=O)Nc3nc(C(F)(F)F)nn32)cc1OC` (stereo unspecified), the cell number change is -38.1%. Further, the AC50 under setting [1] was 5.8 µM [falling, full curve].
Take `Cc1cc(C)c2nc(N(CCN(C)C)C(=O)c3ccc(S(=O)(=O)N(C)CC4CCCO4)cc3)sc2c1` (stereo unspecified): the cell number change was -56.5%. Also, the concentration at half-maximal activity (AC50) under setting [1] was 10.3 µM [falling, partial curve]. Further, the AC50 under setting [2] is 14.6 µM [falling, partial curve].
On to `COc1ccccc1N1CCN(C(=O)CSc2nc3ccccc3c(=O)n2CC2CCCO2)CC1` (stereo unspecified), for which the cell number change was 3.94%.
Regarding `C=CCn1c(=O)[nH]c2cc(C(=O)N3CCN(c4cccc(Cl)c4)CC3)ccc2c1=O`, the cell number change was -35.5%. The AC50 under setting [1] was 20.6 µM [falling, partial curve, poor fit]. The concentration at half-maximal activity (AC50) under setting [2] is 18.4 µM [falling, partial curve, poor fit].
Consider `O=C(N/N=C/c1cc2c(cc1[N+](=O)[O-])OCO2)c1cccnc1`, for which the AC50 under setting [2] was 0.00411 µM [rising, full curve, poor fit].
Same read-out and setting: the result for `Cn1c(=O)cc(OCCCC(=O)Nc2ccccn2)c2ccccc21` reads 1.84 µM [falling, partial curve].
Take `CC1=C(C)/C(=N\OS(=O)(=O)c2ccccc2)C=CC1=O`: the cell number change is -90.4%. The AC50 under setting [1] was 3.26 µM [falling, full curve]. Further, under setting [2], the AC50 was 16.4 µM [falling, partial curve].
Turning to `O=C(CCCn1c(=O)[nH]c2cc(Cl)ccc2c1=O)NC1CCCCCC1`, the cell number change worked out at 8.54%. Moreover, under setting [2], the AC50 is 0.164 µM [falling, full curve, poor fit].
Take `O=C(COC(=O)c1ccc(O)cc1)NCCC1=CCCCC1`: the cell number change is -34.3%. Besides, the AC50 under setting [1] is 1.84 µM [rising, partial curve].
Regarding `CCSc1nc(C2CC2)cc(-c2ccco2)c1C#N`, the cell number change was -29%.
For `CN(c1ccccc1)S(=O)(=O)c1cccc(NC(=O)CSc2nncs2)c1`, the cell number change was -24.9%. Moreover, the AC50 under setting [2] is 16.4 µM [falling, single point].
`Cc1cc(C)c2nc(SCC(=O)Nc3cc(C)on3)c(C#N)cc2c1`: the cell number change was determined as 19%. The half-maximal activity concentration (AC50) under setting [2] is 29.1 µM [rising, single point].
As to `Cn1c(CNc2ccccc2O)nc2ccccc21`, the cell number change was -3.57%. Also, under setting [2], the AC50 was 0.164 µM [falling, single point].
In the case of `COc1cc(NC(=S)NC(=O)c2c(OC)cccc2OC)ccc1NC(=O)c1cccs1`, the cell number change is -14.2%. The concentration at half-maximal activity (AC50) under setting [1] was 6.51 µM [falling, single point].
With `O=C(O)CNS(=O)(=O)c1cccc(Cl)c1`, the cell number change was -8.37%. Under setting [2], the half-maximal activity concentration (AC50) was 5.17 µM [falling, full curve, poor fit].
In the case of `O=C(NCCCN1CCOCC1)c1ccc(-c2ccc(Cl)cc2)o1`, the cell number change is -45.1%. Also, under setting [1], the AC50 is 25.9 µM [falling, partial curve, poor fit].
On to `Cc1onc(-c2ccccc2)c1C(=O)c1c[nH]c(C(=O)NCc2ccncc2)c1`, for which the cell number change is -52.5%. The concentration at half-maximal activity (AC50) under setting [1] is 29.1 µM [falling, single point].
Regarding `O=C(COC(=O)C1CC(=O)N(c2ccccc2)C1)c1ccccc1` (stereo unspecified), the cell number change was -21.7%. Moreover, the AC50 under setting [2] was 3.66 µM [falling, full curve, poor fit].
As for `CCN(CC)C(=O)CN(c1ccc(Cl)cc1)S(=O)(=O)c1ccccc1`, under setting [2], the AC50 was 29.1 µM [rising, single point].
On to `Cc1ccc(S(=O)(=O)N(C)c2c(C)ccc(S(=O)(=O)N3CCN(C=O)CC3)c2C)cc1`, for which the cell number change worked out at 177%. Moreover, the half-maximal activity concentration (AC50) under setting [1] is 0.116 µM [rising, partial curve, poor fit].
Regarding `O=C(COC(=O)c1ccccc1NC(=O)c1ccco1)NCCC1=CCCCC1`, the cell number change is -4.37%. For the same compound, the AC50 under setting [2] was 2.06 µM [rising, full curve].
Regarding `COc1ccc(N2CCN(C(=O)c3ccc(Cn4nc(C)c([N+](=O)[O-])c4C)o3)CC2)cc1`, the cell number change was -32%. In addition, the AC50 under setting [1] was 20.6 µM [falling, single point]. Besides, the concentration at half-maximal activity (AC50) under setting [2] was 11.6 µM [falling, single point].
In the case of `Cc1[nH]nc2c1C(C(C)C)C(C#N)=C(N)O2` (stereo unspecified), the cell number change stood at 38.6%. Under setting [1], the AC50 is 29.1 µM [rising, single point]. Besides, the AC50 under setting [2] was 29.1 µM [rising, single point].
On to `CCC(=O)NC(c1cc(Cl)c2ccccc2c1O)C1CC1` (stereo unspecified), for which the cell number change is -16.6%. Besides, under setting [2], the concentration at half-maximal activity (AC50) is 0.146 µM [rising, single point].
Regarding `Cc1oc(-c2cccc(F)c2)nc1CN1CCCCC1CCn1cccn1` (stereo unspecified), the cell number change came to 16.6%. For the same compound, the AC50 under setting [2] is 0.00461 µM [rising, full curve, poor fit].
Regarding `COc1ccc(NC(=O)C(c2ccccn2)N(C(C)=O)c2ccc(C)cc2)cc1` (stereo unspecified), the cell number change was 19.9%. The AC50 under setting [2] is 14.6 µM [rising, partial curve, poor fit].
Turning to `Cc1ccccc1OCc1nnc(SCC(=O)O)n1Cc1ccccc1`, the cell number change stood at 27.5%. Under setting [2], the half-maximal activity concentration (AC50) is 0.00461 µM [rising, full curve, poor fit].
Consider `COc1ccc(C(=O)/C=C/c2ccc(O)cc2)c(O)c1CC=C(C)C`, for which the cell number change was -50%. For the same compound, under setting [1], the half-maximal activity concentration (AC50) is 29.1 µM [falling, single point].
On to `CC1CC(=O)N(CC(=O)Nc2ccc(Br)cc2)c2ccccc2S1(=O)=O` (stereo unspecified), for which the cell number change was -20.2%. Besides, the AC50 under setting [2] is 29.1 µM [rising, partial curve].
In the case of `O=C(NCC(c1cccs1)N1CCOCC1)c1cn(-c2ccccc2)nc1-c1ccc(Cl)cc1` (stereo unspecified), the half-maximal activity concentration (AC50) is 6.51 µM [rising, single point] under setting [1] and 5.17 µM [rising, full curve] under setting [2].
As to `O=C(OCc1cc([N+](=O)[O-])cc2c1OCOC2)c1ccccn1`, the cell number change is -36.6%. Besides, the concentration at half-maximal activity (AC50) under setting [1] was 2.91 µM [falling, full curve]. Further, the half-maximal activity concentration (AC50) under setting [2] is 6.51 µM [falling, full curve].

(Values after PubChem BioAssay AID2685 (National Center for Advancing Translational Sciences (NCATS), 2010).)
